Values quoted from earlier work in PMC11674187, “Inhibitory Effects of Cenobamate on Multiple Human Cardiac Ion Channels and Possible Arrhythmogenic Consequences” (Biomolecules, 2024).

Sequences of proteins named here, by UniProt entry; tags and fusion partners are left off.
UniProt Q14524, whole entry: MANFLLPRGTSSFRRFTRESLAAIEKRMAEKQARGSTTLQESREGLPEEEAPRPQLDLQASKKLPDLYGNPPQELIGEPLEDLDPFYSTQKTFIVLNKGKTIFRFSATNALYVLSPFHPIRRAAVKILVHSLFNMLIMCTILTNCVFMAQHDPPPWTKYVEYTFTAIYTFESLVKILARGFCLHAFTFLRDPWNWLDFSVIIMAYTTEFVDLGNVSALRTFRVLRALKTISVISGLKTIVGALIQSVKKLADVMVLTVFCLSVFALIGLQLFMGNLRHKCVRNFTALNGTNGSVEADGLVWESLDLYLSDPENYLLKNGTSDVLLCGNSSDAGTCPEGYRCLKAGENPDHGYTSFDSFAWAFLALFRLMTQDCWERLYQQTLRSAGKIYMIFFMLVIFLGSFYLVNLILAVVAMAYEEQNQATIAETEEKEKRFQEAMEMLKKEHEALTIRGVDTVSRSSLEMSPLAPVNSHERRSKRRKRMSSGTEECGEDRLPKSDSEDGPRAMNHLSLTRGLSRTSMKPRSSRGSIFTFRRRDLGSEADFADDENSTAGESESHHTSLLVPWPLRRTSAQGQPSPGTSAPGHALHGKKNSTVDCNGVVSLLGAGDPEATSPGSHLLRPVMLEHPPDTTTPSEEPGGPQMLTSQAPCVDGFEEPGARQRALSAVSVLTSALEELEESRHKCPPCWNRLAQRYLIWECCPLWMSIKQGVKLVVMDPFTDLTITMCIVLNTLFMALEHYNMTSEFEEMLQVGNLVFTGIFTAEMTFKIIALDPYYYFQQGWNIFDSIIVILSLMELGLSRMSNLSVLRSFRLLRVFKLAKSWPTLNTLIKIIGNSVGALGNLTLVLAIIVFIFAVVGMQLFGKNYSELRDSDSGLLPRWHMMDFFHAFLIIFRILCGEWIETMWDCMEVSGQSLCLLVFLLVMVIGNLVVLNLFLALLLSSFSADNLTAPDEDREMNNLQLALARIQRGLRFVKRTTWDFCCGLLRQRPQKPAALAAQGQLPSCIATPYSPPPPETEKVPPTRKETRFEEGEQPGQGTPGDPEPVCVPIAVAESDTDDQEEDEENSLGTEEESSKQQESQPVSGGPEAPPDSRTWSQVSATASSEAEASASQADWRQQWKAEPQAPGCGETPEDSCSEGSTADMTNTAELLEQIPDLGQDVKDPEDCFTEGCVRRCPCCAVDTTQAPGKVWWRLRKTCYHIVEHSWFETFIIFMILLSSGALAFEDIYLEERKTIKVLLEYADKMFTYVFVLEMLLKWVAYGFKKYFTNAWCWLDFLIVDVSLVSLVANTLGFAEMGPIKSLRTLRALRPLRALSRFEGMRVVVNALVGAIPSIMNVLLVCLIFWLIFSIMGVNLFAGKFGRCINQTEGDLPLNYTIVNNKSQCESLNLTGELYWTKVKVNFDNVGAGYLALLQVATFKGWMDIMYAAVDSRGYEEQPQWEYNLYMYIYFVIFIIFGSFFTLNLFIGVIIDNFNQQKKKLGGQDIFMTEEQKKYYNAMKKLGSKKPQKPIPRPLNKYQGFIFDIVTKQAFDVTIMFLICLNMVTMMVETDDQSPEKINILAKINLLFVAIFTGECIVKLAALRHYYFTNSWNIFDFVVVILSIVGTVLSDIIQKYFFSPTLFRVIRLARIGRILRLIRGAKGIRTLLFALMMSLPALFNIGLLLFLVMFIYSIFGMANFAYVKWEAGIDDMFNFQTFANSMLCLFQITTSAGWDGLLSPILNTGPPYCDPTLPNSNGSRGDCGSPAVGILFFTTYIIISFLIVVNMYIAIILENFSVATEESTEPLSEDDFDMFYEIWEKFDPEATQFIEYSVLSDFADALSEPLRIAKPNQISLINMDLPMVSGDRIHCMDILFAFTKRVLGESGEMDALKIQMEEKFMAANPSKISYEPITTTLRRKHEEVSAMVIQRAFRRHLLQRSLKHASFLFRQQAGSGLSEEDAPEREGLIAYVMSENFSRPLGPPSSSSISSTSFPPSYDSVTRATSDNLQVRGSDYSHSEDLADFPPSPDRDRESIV

Target: Nav1.5 (Homo sapiens, UniProt Q14524)
Settings: lidocaine-Nav1.5; ref [17] Cardona K et al., 2010; cited from earlier work

## CCN(CC)CC(=O)Nc1c(C)cccc1C [lidocaine]
  kib: 4.9984e+06 M⁻¹ s⁻¹
  kib^−1: 0.0384 ms^−1
  kob: 5.173e+06 M⁻¹ s⁻¹
  kob^−1: 0.0128 ms^−1
